Test results reported in the supplement of paper PMC4604168 (melanoma cell lines).
Some of the results follow. Single values are uncertain, as repeats are few or missing.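 Cells were imaged in 1,536-well plates, and nuclei stained with an antibody against cleaved PARP were counted against all DNA-stained nuclei to give the apoptosis fraction. Screening doses were chosen to leave most cells alive, and resting and induced cleaved-PARP levels differ strongly between cell lines.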

system: UACC62; assay: cleaved PARP positive nuclei fraction relative to DMSO control; melanoma cells; higher = more apoptosis; conditions: library dose: low library concentration; 72 h

Structure (SMILES) | cleaved PARP positive nuclei fraction
C[C@@H](N)c1ccc(C(=O)Nc2ccnc3[nH]ccc23)cc1 + Cc1cc([N+](=O)[O-])ccc1NS(=O)(=O)c1cc(Cl)ccc1Cl [FH535] (first compound 0.4 µM, partner dose 1 µM) | 213%
CS(=O)(=O)c1ccc(C(=O)Nc2ccc(Cl)c(-c3ccccn3)c2)c(Cl)c1 [vismodegib] + O=S(=O)(c1ccccc1)N(CC(F)(F)F)c1ccc(C(O)(C(F)(F)F)C(F)(F)F)cc1 [T0901317] (first compound 1 µM, partner dose 1.4 µM) | 73.1%
CCN(CC)CCNC(=O)c1c(C)[nH]c(/C=C2\C(=O)Nc3ccc(F)cc32)c1C [sunitinib] + COc1cc(N2CCC(N3CCN(C)CC3)CC2)ccc1Nc1ncc(Cl)c(Nc2ccccc2S(=O)(=O)C(C)C)n1 [NVP-TAE684] (first compound 0.4 µM, partner dose 0.08 µM) | 155%
CC1(C)CCC(c2ccc(Cl)cc2)=C(CN2CCN(c3ccc(C(=O)NS(=O)(=O)c4ccc(N[C@H](CCN5CCOCC5)CSc5ccccc5)c(S(=O)(=O)C(F)(F)F)c4)cc3)CC2)C1 + CC(C)CCN1c2nc(Nc3cc(F)c(O)c(F)c3)ncc2N(C)C(=O)C1C [BID1870] (first compound 0.4 µM, partner dose 0.2 µM) | 867%
C[C@@H](N)c1ccc(C(=O)Nc2ccnc3[nH]ccc23)cc1 + CN(NC(=O)CC(=O)NN(C)C(=S)c1ccccc1)C(=S)c1ccccc1 [STA4783] (first compound 0.4 µM, partner dose 0.006 µM) | 1130%
NC1(c2ccc(-c3nc4ccn5c(=O)[nH]nc5c4cc3-c3ccccc3)cc2)CCC1 + COc1cc(N2CCC(N3CCN(C)CC3)CC2)ccc1Nc1ncc(Cl)c(Nc2ccccc2S(=O)(=O)C(C)C)n1 [NVP-TAE684] (first compound 0.4 µM, partner dose 0.08 µM) | 731%
NC(=O)c1ccc(N(C(N)=O)c2c(F)cccc2F)nc1-c1ccc(F)cc1F + CCCCCCCCCCCC1=C(O)C(=O)C=C(O)C1=O [Embelin] (first compound 0.4 µM, partner dose 1.2 µM) | 151%
CS(=O)(=O)c1ccc(C(=O)Nc2ccc(Cl)c(-c3ccccn3)c2)c(Cl)c1 [vismodegib] + NCC(=O)Nc1ccc(-n2nc(C(F)(F)F)cc2-c2ccc3c(ccc4ccccc43)c2)cc1 [OSU03012] (first compound 1 µM, partner dose 1 µM) | 131%
NC1(c2ccc(-c3nc4ccn5c(=O)[nH]nc5c4cc3-c3ccccc3)cc2)CCC1 + O=S(=O)(c1ccccc1)N(CC(F)(F)F)c1ccc(C(O)(C(F)(F)F)C(F)(F)F)cc1 [T0901317] (first compound 0.4 µM, partner dose 1.4 µM) | 332%
NC(=O)c1ccc(N(C(N)=O)c2c(F)cccc2F)nc1-c1ccc(F)cc1F + CC(C)(C)c1cnc(CSc2cnc(NC(=O)C3CCNCC3)s2)o1 [SNS-032] (first compound 0.4 µM, partner dose 0.01 µM) | 78.9%
NC(=O)c1ccc(N(C(N)=O)c2c(F)cccc2F)nc1-c1ccc(F)cc1F + CO[C@@H]1[C@H](N(C)C(=O)c2ccccc2)C[C@H]2O[C@]1(C)n1c3ccccc3c3c4c(c5c6ccccc6n2c5c31)C(=O)NC4 [Midostaurin] (first compound 0.4 µM, partner dose 0.08 µM) | 47.6%
Cn1cnc2c(F)c(Nc3ccc(Br)cc3Cl)c(C(=O)NOCCO)cc21 [selumetinib] + COc1cc2c(Oc3ccc4[nH]c(C)cc4c3F)ncnc2cc1OCCCN1CCCC1 [cediranib] (first compound 0.015 µM, partner dose 0.4 µM) | 126%
C[C@]1(O)C[C@@H](c2nc(-c3ccc4ccc(-c5ccccc5)nc4c3)c3c(N)nccn32)C1 + c1cc(-c2cnn3cc(-c4ccc(OCCN5CCCCC5)cc4)cnc23)ccn1 [Dorsomorphin] (first compound 0.4 µM, partner dose 0.4 µM) | 61.9%
CC1(C)CCC(c2ccc(Cl)cc2)=C(CN2CCN(c3ccc(C(=O)NS(=O)(=O)c4ccc(N[C@H](CCN5CCOCC5)CSc5ccccc5)c(S(=O)(=O)C(F)(F)F)c4)cc3)CC2)C1 + NCC(=O)Nc1ccc(-n2nc(C(F)(F)F)cc2-c2ccc3c(ccc4ccccc43)c2)cc1 [OSU03012] (first compound 0.4 µM, partner dose 1 µM) | 86.7%
CN(c1ncccc1CNc1nc(Nc2ccc3c(c2)CC(=O)N3)ncc1C(F)(F)F)S(C)(=O)=O + O=C(O)c1ccc(-c2c[nH]c3ncc(-c4ccccc4)cc23)cc1C1CCCC1 [GSK650394] (first compound 0.08 µM, partner dose 0.16 µM) | 91.9%
NC(=O)c1ccc(N(C(N)=O)c2c(F)cccc2F)nc1-c1ccc(F)cc1F + COc1ccc(-c2ccc3c(N4CCOCC4)nc(N4C[C@@H](C)O[C@@H](C)C4)nc3n2)cc1CO [KU0063794] (first compound 0.4 µM, partner dose 0.02 µM) | 57.9%
NC1(c2ccc(-c3nc4ccn5c(=O)[nH]nc5c4cc3-c3ccccc3)cc2)CCC1 + CCCCCCCCCCCC1=C(O)C(=O)C=C(O)C1=O [Embelin] (first compound 0.4 µM, partner dose 1.2 µM) | 100%
NC(=O)c1ccc(N(C(N)=O)c2c(F)cccc2F)nc1-c1ccc(F)cc1F + CC1(C)NC(=O)N(c2ccc([N+](=O)[O-])c(C(F)(F)F)c2)C1=O [nilutamide] (first compound 0.4 µM, partner dose 1 µM) | 54.9%
COc1ccc(C2=N[C@@H](c3ccc(Cl)cc3)[C@@H](c3ccc(Cl)cc3)N2C(=O)N2CCNC(=O)C2)c(OC(C)C)c1 [Nutlin-3] + Cn1cncc1[C@@](N)(c1ccc(Cl)cc1)c1ccc2c(c1)c(-c1cccc(Cl)c1)cc(=O)n2C [tipifarnib] (first compound 0.1 µM, partner dose 0.01 µM) | 188%
CN(c1ncccc1CNc1nc(Nc2ccc3c(c2)CC(=O)N3)ncc1C(F)(F)F)S(C)(=O)=O + Cc1cc([N+](=O)[O-])ccc1NS(=O)(=O)c1cc(Cl)ccc1Cl [FH535] (first compound 0.08 µM, partner dose 1 µM) | 115%
CC(=O)O[C@@]12CO[C@@H]1C[C@H](O)[C@@]1(C)C(=O)[C@H](O)C3=C(C)[C@@H](OC(=O)[C@H](O)[C@@H](NC(=O)OC(C)(C)C)c4ccccc4)C[C@@](O)([C@@H](OC(=O)c4ccccc4)[C@H]21)C3(C)C [Docetaxel] + N#Cc1c(O)c2c(-c3ccc(-c4ccccc4O)cc3)csc2[nH]c1=O [A769662] (first compound 0.0001 µM, partner dose 2 µM) | 598%
CC(=O)O[C@@]12CO[C@@H]1C[C@H](O)[C@@]1(C)C(=O)[C@H](O)C3=C(C)[C@@H](OC(=O)[C@H](O)[C@@H](NC(=O)OC(C)(C)C)c4ccccc4)C[C@@](O)([C@@H](OC(=O)c4ccccc4)[C@H]21)C3(C)C [Docetaxel] + COc1ccc2c(c1)CCC1C2CCC2(C)C(NCCCCCCN3C(=O)C=CC3=O)CCC12 [U73122] (first compound 0.0001 µM, partner dose 0.4 µM) | 494%
CN(c1ncccc1CNc1nc(Nc2ccc3c(c2)CC(=O)N3)ncc1C(F)(F)F)S(C)(=O)=O + COc1cc(N2CCC(N3CCN(C)CC3)CC2)ccc1Nc1ncc(Cl)c(Nc2ccccc2S(=O)(=O)C(C)C)n1 [NVP-TAE684] (first compound 0.08 µM, partner dose 0.08 µM) | 109%
NC(=O)c1ccc(N(C(N)=O)c2c(F)cccc2F)nc1-c1ccc(F)cc1F + O=C(O)c1ccc(-c2c[nH]c3ncc(-c4ccccc4)cc23)cc1C1CCCC1 [GSK650394] (first compound 0.4 µM, partner dose 0.16 µM) | 102%
C[C@@H](N)c1ccc(C(=O)Nc2ccnc3[nH]ccc23)cc1 + Cc1cc(N2CCOCC2)cc2[nH]c(-c3c(NC[C@@H](O)c4cccc(Cl)c4)cc[nH]c3=O)nc12 [BMS536924] (first compound 0.4 µM, partner dose 0.2 µM) | 139%
CC(=O)O[C@@]12CO[C@@H]1C[C@H](O)[C@@]1(C)C(=O)[C@H](O)C3=C(C)[C@@H](OC(=O)[C@H](O)[C@@H](NC(=O)OC(C)(C)C)c4ccccc4)C[C@@](O)([C@@H](OC(=O)c4ccccc4)[C@H]21)C3(C)C [Docetaxel] + COc1ccc(-c2ccc3c(N4CCOCC4)nc(N4C[C@@H](C)O[C@@H](C)C4)nc3n2)cc1CO [KU0063794] (first compound 0.0001 µM, partner dose 0.02 µM) | 461%
CCCCCCCCc1ccc(CCC(N)(CO)CO)cc1 [fingolimod] + Cc1cc([N+](=O)[O-])ccc1NS(=O)(=O)c1cc(Cl)ccc1Cl [FH535] (first compound 2 µM, partner dose 1 µM) | 58.1%
CCCCCCCCc1ccc(CCC(N)(CO)CO)cc1 [fingolimod] + Cn1cc(/C=C2\C(=O)Nc3cccnc32)c2ccccc21 [GW441756] (first compound 2 µM, partner dose 0.4 µM) | 158%
Cn1cnc2c(F)c(Nc3ccc(Br)cc3Cl)c(C(=O)NOCCO)cc21 [selumetinib] + O=C(Nc1ccccc1)c1cc([N+](=O)[O-])ccc1Cl [GW9662] (first compound 0.015 µM, partner dose 2 µM) | 322%

2 consecutive entries out of the list so far:
Structure (SMILES) | cleaved PARP positive nuclei fraction
CC(=O)O[C@@]12CO[C@@H]1C[C@H](O)[C@@]1(C)C(=O)[C@H](O)C3=C(C)[C@@H](OC(=O)[C@H](O)[C@@H](NC(=O)OC(C)(C)C)c4ccccc4)C[C@@](O)([C@@H](OC(=O)c4ccccc4)[C@H]21)C3(C)C [Docetaxel] + COc1ccc(-c2ccc3c(N4CCOCC4)nc(N4C[C@@H](C)O[C@@H](C)C4)nc3n2)cc1CO [KU0063794] (first compound 0.0001 µM, partner dose 0.02 µM) | 461%
CCCCCCCCc1ccc(CCC(N)(CO)CO)cc1 [fingolimod] + Cc1cc([N+](=O)[O-])ccc1NS(=O)(=O)c1cc(Cl)ccc1Cl [FH535] (first compound 2 µM, partner dose 1 µM) | 58.1%
